Laboratory results reported in publication PMC3544807.
No constants are given. Whether binding was seen depends on the method and setting. In cells and extracts the contact can be indirect. Some results given as binding are weak or reduced against the parent protein; the word gives no strength. Where a sequence is shown, tags or fusion partners need not be part of it.

Target: T1, SH2 domain of Vav1 fused to glutathione-S-transferase (UniProt P15498)
T1 sequence: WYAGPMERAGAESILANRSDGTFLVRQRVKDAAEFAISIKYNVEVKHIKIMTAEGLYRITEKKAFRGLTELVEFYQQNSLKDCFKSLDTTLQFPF
Assay: pull-down; lysates of AU565Vav1 cells incubated with bacterial GST-Vav1SH2 (or GST-GFP), then immobilized on glutathione-Sepharose beads; bound proteins immunoblotted with anti-Cbl-c or anti-pTyr; only the target purified

binding: binds
B1: Cbl-c ubiquitin ligase (protein, UniProt Q9ULV8 1-474)
chain: MALAVAPWGRQWEEARALGRAVRMLQRLEEQCVDPRLSVSPPSLRDLLPRTAQLLREVAHSRRAAGGGGPGGPGGSGDFLLIYLANLEAKSRQVAALLPPRGRRSANDELFRAGSRLRRQLAKLAIIFSHMHAELHALFPGGKYCGHMYQLTKAPAHTFWRESCGARCVLPWAEFESLLGTCHPVEPGCTALALRTTIDLTCSGHVSIFEFDVFTRLFQPWPTLLKNWQLLAVNHPGYMAFLTYDEVQERLQACRDKPGSYIFRPSCTRLGQWAIGYVSSDGSILQTIPANKPLSQVLLEGQKDGFYLYPDGKTHNPDLTELGQAEPQQRIHVSEEQLQLYWAMDSTFELCKICAESNKDVKIEPCGHLLCSCCLAAWQHSDSQTCPFCRCEIKGWEAVSIYQFHGQATAEDSGNSSDQEGRELELGQVPLSAPPLPPRPDLPPRKPRNAQPKVRLLKGNSPPAALGPQDPAPA
